Out of some 340,000 compounds screened, about 55 (0.02%) were called active. Inconclusive means that the source gave no clear call. Such entries were picked first, then a sample of the others.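 The calls were made as follows: active = phage lysis inhibition, versus mean bacterial control, above a set limit; inconclusive = no clear call, values can overlap the other calls; inactive = the rest.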
experiment: protection from phage-mediated lysis, alamar blue read-out – E. coli UTI89, K1F phage, bacterial capsule biogenesis inhibitors (AID 488966); conditions: 2 h; inhibition: at 100 µM, hits give high values unless noted; series mostly up to 300 µM;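 also: capsule biogenesis inhibitors block K1F phage lysis so surviving cells raise fluorescence; higher fluorescence means more inhibition of phage lysis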

SMILES	inhibition
CNC(=S)N(CCc1cccc(C)c1)Cc1cc2cc(OC)c(OC)cc2[nH]c1=O	inconclusive: 16.2%
CC1(C(=O)O)CCC(C(=O)Nc2ccccc2)C1(C)C (stereo not drawn)	inactive: 0.32%
COc1ccc(C[C@@H]2CN3C(=NC[C@@H]3Cc3ccc(O)cc3)N2C[C@H](C)NC(=O)CCC2CCCCC2)cc1	inactive: 0.18%
Cc1cn(C2CCC(CO)O2)c(=O)[nH]c1=O (stereo not drawn)	inconclusive: 18.7% [at 50 µM, hits give high values]
Cc1cc(CSC(=N)N)c(CSC(=N)N)cc1C	inconclusive: 51.4%
COc1ccc(OC)c(S(=O)(=O)Nc2cccc(F)c2)c1	inconclusive: 15.2%
CCOC(=O)Cc1csc(NC(=O)CSc2nnc(Cc3csc(N)n3)n2C)n1	inconclusive: 17.3%
CC1(C)Cc2ccccc2/C(=C/C(=O)N2CCCCCC2)N1	inconclusive: 17.5%
N#CC(C#N)=C1NC2(CCCCC2)Cc2ccccc21	inconclusive: 18.8%
O=C(CSc1nnc(CNC(=O)c2ccco2)o1)Nc1nc2ccccc2s1	inactive: 0.07%
N#Cc1ccc(Sc2ccccn2)c([N+](=O)[O-])c1	inconclusive: 17.6%
COc1ccc2cc(C(=O)NCCCN3CCCC3=O)[nH]c2c1	inactive: 0.11%
O=c1[nH]c(/C=C\c2cccc(C(F)(F)F)c2)nc(O)c1[N+](=O)[O-]	inconclusive: 19.6%
O=C(CN1C(=O)CCSc2ccccc21)Nc1cccc(F)c1	inconclusive: 19%
COc1cc(C2NC(=S)NC3=C2CCc2ccccc23)cc(OC)c1OC (stereo not drawn)	inactive: 0.64% [at 50 µM, hits give high values]
COCC(C)NCc1ccc(C)cc1C (stereo not drawn)	inconclusive: 15.7%
COc1ccc(NC(=O)Nc2cc(C(C)(C)C)on2)cc1OC	inactive: 1.47% [at 50 µM, hits give high values]
CCOc1ccc(-c2cc(NC(=O)c3c(F)cccc3F)c(C(=O)O)s2)cc1	inconclusive: 67% [at 50 µM, hits give high values]
Cc1ccc(S(=O)(=O)Nc2cc(C)c(O)c(Sc3n[nH]c(C)n3)c2)cc1	inconclusive: 38.5%
O=C(Nc1ccc2ccccc2c1)Nc1ccc2snnc2c1	inconclusive: 18.1%
Cc1cc(C(=O)Cn2cncn2)c(C)n1CCc1ccc(F)cc1	inconclusive: 19.1%
c1ccc(C(c2nnnn2C2CCCCC2)N2CCc3ccccc3C2)nc1 (stereo not drawn)	inactive: 6.52%
CC(C)N(Cc1ccccc1)C(=O)CN1C(=O)NC2(CCCC2)C1=O	inactive: 1.04% [at 50 µM, hits give high values]

Copied from the list:
inhibition with `COc1ccc(OC)c(S(=O)(=O)Nc2cccc(F)c2)c1` is entered as inconclusive: 15.2%
inhibition with `Cc1cn(C2CCC(CO)O2)c(=O)[nH]c1=O` (stereo not drawn) is entered as inconclusive: 18.7% [at 50 µM, hits give high values]
